According to the supplement of paper PMC9254222:
Structures can show the parent of a compound that is named as a salt. The full ranking holds about 1,100 compounds; the median of “Wnt reporter firefly/Renilla luciferase ratio relative to plate median” is about 1.1, and the highest 2% start at about 1.6. This is a selection; strong and weak results do not stand in their true shares.

Tested on: HEK293T (UBE3A T485A transfected, BAR Wnt reporter)
Assay: Wnt reporter firefly/Renilla luciferase ratio relative to plate median (fold (linear ratio)); higher = more Wnt/beta-catenin reporter activation
Conditions: 24 h
Procedure, shortened: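 HEK293T cells carrying a transfected BAR firefly luciferase Wnt reporter, TK-Renilla and an expression plasmid were exposed to chemicals at 0.01–100 uM for 24 h, with dosing four hours after transfection. Readout used Dual-Glo luciferase. The firefly/Renilla ratio defined Wnt activity and raw Renilla defined cell health, each median-centred per plate. Figures are means of four biological replicates.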

SMILES	Wnt reporter firefly/Renilla luciferase ratio (concentration: 0.1 uM)	Wnt reporter firefly/Renilla luciferase ratio (concentration: 1 uM)	Wnt reporter firefly/Renilla luciferase ratio (concentration: 10 uM)	Wnt reporter firefly/Renilla luciferase ratio (concentration: 100 uM)	Wnt reporter firefly/Renilla luciferase ratio (concentration: 0.01 uM)
CC(O)CO (centres undefined) [1,2-Propylene glycol]	0.815	0.913	0.875	1.23	–
Sc1nc2ccccc2s1 [2-Mercaptobenzothiazole]	–	1.62	–	1.69	–
Cc1cc(SC2=C(O)C[C@@](CCc3ccc(N)cc3)(C(C)C)OC2=O)c(C(C)(C)C)cc1CO	1.12	0.9	1.24	0.341	–
Oc1ccc2ccccc2c1 [2-Naphthalenol]	1.3	1.15	1.31	0.613	–
CCc1c2c(nc3ccc(OC(=O)N4CCC(N5CCCCC5)CC4)cc13)-c1cc3c(c(=O)n1C2)COC(=O)C3(O)CC (centres undefined) [Irinotecan]	1.6	1.31	0.401	0.407	1.4
Oc1ccc(C2COc3cc(O)ccc3C2)cc1 (centres undefined) [Equol]	1.08	1.22	1.32	0.113	1.17
C=CCOC(Cn1ccnc1)c1ccc(Cl)cc1Cl (centres undefined) [Imazalil]	1.04	0.994	0.916	0.377	1.1
CC1=C(/C=C/C(C)=C/C=C/C(C)=C/C(=O)O)C(C)(C)CCC1 [all-trans-Retinoic acid]	0.99	0.918	1.36	0.4	–
Cc1cc(Nc2cc(N3CCN(C)CC3)nc(Sc3ccc(NC(=O)C4CC4)cc3)n2)n[nH]1	0.687	0.649	0.517	–	1.37
O=C(O)c1ccccc1-n1cc(C(=O)O)c(=O)c2cc(Nc3c(F)cc(F)cc3Cl)c(Cl)cc21	1.24	1.08	1.21	1.13	–
O=c1[nH]cnc2c1ncn2[C@H]1CC[C@@H](CO)O1 [2',3'-Dideoxyinosine]	1.07	1	0.879	1.08	–
O=c1[nH]cc(F)c(=O)[nH]1 [5-Fluorouracil]	1.22	1.05	0.202	0.277	–
COC(=O)CC(=O)OC [Dimethyl malonate]	1.02	1.16	0.907	1.28	–
COc1ccc(OC(F)(F)F)cc1CN[C@H]1CCCN[C@H]1c1ccccc1	1.18	1.06	0.514	–	–
C/C=C/c1ccc(OC)cc1 [(E)-Anethole]	1.22	0.971	1.15	1.58	–
COC(=O)c1ccccc1C(=O)O [Monomethyl phthalate]	1.05	1.09	1.11	1.4	1.05
C=CCc1ccc(OC)c(OC)c1 [Methyleugenol]	0.944	1.02	0.899	0.99	–
Cc1nn(C)c(Oc2ccccc2)c1C=NOCc1ccc(C(=O)OC(C)(C)C)cc1 [Fenpyroximate (Z,E)]	0.924	0.351	0.219	0.404	0.912
CC12CCC3c4ccc(O)cc4CCC3C1CCC2O (stereo not drawn) [17-beta-estradiol]	0.945	0.976	1.05	0.278	0.929
CCCCCCCCCCCO [1-Undecanol]	0.805	0.79	1.13	1.1	–
CCOC(=O)c1ccc([C@H]2CC[C@H](NC[C@H](O)COc3ccc(O)c(NS(C)(=O)=O)c3)CC2)cc1.Cl	1.32	0.943	0.776	–	–
CC1=CC(=O)CC(C)(C)C1 [Isophorone]	0.978	0.91	1.48	1.46	–
CCCCOC(=O)c1ccc(O)cc1 [Butylparaben]	0.891	1.22	1.01	0.18	–

SMILES	Wnt reporter firefly/Renilla luciferase ratio (concentration: 0.1 uM)	Wnt reporter firefly/Renilla luciferase ratio (concentration: 1 uM)	Wnt reporter firefly/Renilla luciferase ratio (concentration: 10 uM)	Wnt reporter firefly/Renilla luciferase ratio (concentration: 100 uM)	Wnt reporter firefly/Renilla luciferase ratio (concentration: 0.01 uM)
NNC(=O)c1ccncc1 [Isoniazid]	0.84	0.861	1.24	1.17	–
CCC(C)OC(=O)N1CCCCC1CCO (centres undefined) [Icaridin]	0.907	1.04	1.15	1.22	1.07
CC(=O)OCCOCCOCCOC(C)=O [Triethylene glycol diacetate]	1.25	1.16	1.07	1.26	–
Cc1nc(C)nc(N2C[C@@H](C)N(c3ccnc([C@@H](C)O)n3)[C@@H](C)C2)n1	1.16	1.13	1.09	0.602	–
CCN(CC)C(=O)c1cccc(C)c1	1.26	1.04	1.19	1.13	1.39
CCCCCCCCCC[N+](C)(C)[O-] [N,N-Dimethyldecylamine oxide]	1.26	1.13	1.56	0.836	–
CC(C)CC(C=O)NC(=O)C(CC(C)C)NC(=O)C(CC(C)C)NC(=O)OCc1ccccc1 (centres undefined)	0.85	2.61	–	–	0.993
O=S(=O)([O-])c1ccc(/N=N/c2c(O)ccc3cc(S(=O)(=O)[O-])ccc23)cc1.[Na+].[Na+] [FD&C Yellow 6]	–	–	–	2.05	–
CC(=O)[C@H]1CC[C@H]2[C@@H]3CCC4=CC(=O)CC[C@]4(C)[C@H]3CC[C@]12C [Progesterone]	1.1	1.18	0.781	0.322	–
CN1C(=O)N(c2ccccc2Br)Cc2cnc(Nc3ccc4c(c3)OCC(CO)O4)nc21 (centres undefined)	0.694	0.73	1.19	–	–
COC(=O)CCCC(=O)OC [Dimethyl glutarate]	0.941	0.895	1.36	1.05	–
c1ccc2[nH]nnc2c1 [1,2,3-Benzotriazole]	1.1	0.881	1.01	1.32	–
Cc1ccc(S(=O)(=O)NC(=O)NN2CCCCCC2)cc1 [Tolazamide]	1.07	1.24	1.09	1.43	–
CCOC(=O)CC(O)(CC(=O)OCC)C(=O)OCC [Triethyl citrate]	1.15	1.2	1.07	1.33	–
COC(=O)c1ccc(C(=O)OC)cc1 [Dimethyl terephthalate]	1.12	0.902	1.37	1.4	–
C[C@]12C=CC(=O)C=C1CC[C@@H]1[C@@H]2C(=O)C[C@@]2(C)[C@H]1CC[C@]2(O)C(=O)CO [Prednisone]	0.89	0.741	0.763	0.685	–
CCCC[C@H]1CN(CC2CCOCC2)C(=O)OC12CCN(C1(C)CCN(C(=O)c3c(C)ncnc3C)CC1)CC2	1.19	1.12	1.1	1.55	–
Cc1ccc(C)c(O)c1C [2,3,6-Trimethylphenol]	1.4	1.11	1.21	1.58	–
CCCCCC(=O)O [Hexanoic acid]	1.02	0.926	1.05	1.27	–
CCCC(CCC)C(=O)O [Valproic acid]	0.995	1.01	1.14	1.69	1.2
O=C(O)CCCCC(=O)O [Hexanedioic acid]	1.24	1.34	1.58	1.41	–
OC12N=C(c3ccccc3)SC1Cc1cc(Cl)ccc12 (centres undefined)	1.17	1.22	1.11	0.457	–
C[C@]12CC[C@@H]3c4ccc(O)cc4C[C@@H](CCCCCCCCCS(=O)CCCC(F)(F)C(F)(F)F)[C@H]3[C@@H]1CC[C@@H]2O (some centres undefined) [Fulvestrant]	1.27	0.905	1.14	0.933	–

SMILES	Wnt reporter firefly/Renilla luciferase ratio (concentration: 0.1 uM)	Wnt reporter firefly/Renilla luciferase ratio (concentration: 1 uM)	Wnt reporter firefly/Renilla luciferase ratio (concentration: 10 uM)	Wnt reporter firefly/Renilla luciferase ratio (concentration: 100 uM)	Wnt reporter firefly/Renilla luciferase ratio (concentration: 0.01 uM)
CCNc1nc(N)nc(Cl)n1 [Deisopropylatrazine]	0.972	0.965	1.5	0.426	1.05
C=CN1CCCC1=O [N-Vinyl-2-pyrrolidone]	1.12	1.18	1.21	1.04	–
CCCCOC(=O)CCCCCCCCC(=O)OCCCC [Dibutyl decanedioate]	0.951	0.896	0.802	2.33	–
OCC(O)CO [Glycerol]	1.1	0.905	1.05	1.04	–
CCCCOC(=O)[C@@H](C)Oc1ccc(Oc2ccc(C(F)(F)F)cn2)cc1 [Fluazifop-P-butyl]	–	–	–	1.67	–
Cc1ccc(C(C)C)c(O)c1 [Thymol]	0.988	1.09	1.29	1.08	–
NC(=O)Cn1c(=O)cc(CCN2CCN(c3nccc4sccc34)CC2)c2ccc(F)cc21 [Trelanserin]	1.25	1.08	1.23	1.07	–
CCn1nc(C)c2c1C(=O)NCC(c1ccc(O)cc1)=N2	1.05	0.921	1.11	0.603	–
O=C1OC(c2ccc(O)cc2)(c2ccc(O)cc2)c2ccccc21 [Phenolphthalein]	1.15	0.934	1.19	–	–
CCN(CC)C(=S)SSC(=S)N(CC)CC [Disulfiram]	1.06	0.747	0.832	0.235	–
COc1cc(S(=O)(=O)[O-])c(C)cc1/N=N/c1c(O)ccc2cc(S(=O)(=O)[O-])ccc12.[Na+].[Na+]	1.19	1	1.45	2.21	–
NC=O [Formamide]	1.2	1.2	1.16	1.09	–
OCc1ccccc1 [Benzyl alcohol]	1.29	0.923	1.03	1.49	–
O=N[O-].[Na+] [Sodium nitrite]	1.13	0.943	1.4	1.29	–
Nc1ccc(Nc2ccccc2)cc1 [N-Phenyl-1,4-benzenediamine]	1.37	0.895	0.885	0.13	–
CC(C)c1ccc(C(=O)N=C(N)N)cc1S(C)(=O)=O.CS(=O)(=O)O [Cariporide mesylate]	1.05	1.35	1.03	0.932	–
O=C(CCCCCCCCc1cccnc1)N1CCC(C=C(c2ccccc2)c2ccccc2)CC1	1.18	0.837	1.23	0.852	–
CCCCCCc1ccc(O)cc1O [4-Hexylresorcinol]	0.958	1	0.876	–	–
CC=Cc1ccc(O)c(OC)c1 [Isoeugenol]	0.93	1.02	1.04	0.677	–
CS(=O)(=O)OCCCCOS(C)(=O)=O [Busulfan]	0.922	1.13	1.22	1.11	–
CCC(C)(C)C(=O)O[C@H]1C[C@@H](C)C=C2C=C[C@H](C)[C@H](CC[C@@H]3C[C@@H](O)CC(=O)O3)[C@H]21 [Simvastatin]	1.08	0.9	0.905	0.689	–

4 compounds picked at random from the list so far, as already listed:
SMILES	Wnt reporter firefly/Renilla luciferase ratio (concentration: 0.1 uM)	Wnt reporter firefly/Renilla luciferase ratio (concentration: 1 uM)	Wnt reporter firefly/Renilla luciferase ratio (concentration: 10 uM)	Wnt reporter firefly/Renilla luciferase ratio (concentration: 100 uM)	Wnt reporter firefly/Renilla luciferase ratio (concentration: 0.01 uM)
CCNc1nc(N)nc(Cl)n1 [Deisopropylatrazine]	0.972	0.965	1.5	0.426	1.05
O=N[O-].[Na+] [Sodium nitrite]	1.13	0.943	1.4	1.29	–
CCCCOC(=O)[C@@H](C)Oc1ccc(Oc2ccc(C(F)(F)F)cn2)cc1 [Fluazifop-P-butyl]	–	–	–	1.67	–
COc1cc(S(=O)(=O)[O-])c(C)cc1/N=N/c1c(O)ccc2cc(S(=O)(=O)[O-])ccc12.[Na+].[Na+]	1.19	1	1.45	2.21	–
